Laboratory results reported in article PMC3384608.

Chains of the proteins cited; added tags and fusions are not shown. A line that says so, or that is headed by a name, gives the form on record, which may keep a tag or linker.
myelin basic protein 21.5 kDa isoform (exon 2 containing) (mouse), one chain, as listed by the source, stated change not applied: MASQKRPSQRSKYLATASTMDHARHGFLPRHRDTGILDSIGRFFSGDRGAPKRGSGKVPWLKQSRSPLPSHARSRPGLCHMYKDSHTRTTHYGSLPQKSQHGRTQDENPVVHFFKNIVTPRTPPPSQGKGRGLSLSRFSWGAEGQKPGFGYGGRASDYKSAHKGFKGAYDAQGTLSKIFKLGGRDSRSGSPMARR
myelin basic protein 18.5 kDa isoform (mouse), one chain, as listed by the source: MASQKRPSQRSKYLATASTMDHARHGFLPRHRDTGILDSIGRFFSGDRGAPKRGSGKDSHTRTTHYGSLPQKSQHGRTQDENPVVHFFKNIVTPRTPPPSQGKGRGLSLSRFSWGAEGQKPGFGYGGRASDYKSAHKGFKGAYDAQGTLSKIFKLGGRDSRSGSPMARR

How the values were obtained:
Assay in all cases: southwestern blot
Conditions in all cases: 1 mM Mg2+; Southwestern: 5 uM folded fluorescent aptamer in PBS + 1 mM MgCl2, 14 h on PVDF blocked with 1% BSA, 10% milk, 2 mg/mL salmon testis DNA; washed in TBST then 0.5x TBE; protein in an extract; label: 5'-fluorescein; single-stranded DNA
[1] = target: T1, myelin oligodendrocyte glycoprotein (MOG), 23.8 kDa band (mouse) (UniProt Q61885)
T1 sequence (looked up, limits assumed): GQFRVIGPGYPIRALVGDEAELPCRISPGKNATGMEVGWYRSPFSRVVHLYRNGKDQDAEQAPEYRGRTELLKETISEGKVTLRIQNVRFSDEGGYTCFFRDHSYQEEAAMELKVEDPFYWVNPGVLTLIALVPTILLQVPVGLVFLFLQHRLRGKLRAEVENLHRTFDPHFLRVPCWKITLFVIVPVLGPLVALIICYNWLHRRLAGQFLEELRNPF

[2] = system: myelin basic protein 21.5 kDa isoform (exon 2 containing) (mouse)
[3] = system: myelin basic protein 18.5 kDa isoform (mouse)
[4] = system: myelin basic protein 17 kDa isoform (exon 2 containing) (mouse)
[5] = system: proteolipid protein (PLP), 12.5 kDa apparent band (mouse)

Measured: binding result

TTTTTTTTTTTTTTTTTTTTTTTTTTTTTTTTTTTTTTTT [control 3202 (LJM-3202, dT40)]
no binding: all assays above

Results from cells or extracts need not show a direct contact. A negative result means that nothing was seen under these conditions. At least one verdict rests on a figure or table, not on a statement of the authors. For some assays here: Where a protein sequence is shown, tags need not be part of it. For some assays here: Construct, isoform or probe ends are uncertain for at least one entry.
